Measurements: PubChem BioAssay AID493014 (National Center for Advancing Translational Sciences (NCATS), 2011)
Some of the results follow. Further columns of the screen follow, without active or inactive calls. Most of these compounds were active or inconclusive in the main read-out, so they are no random draw. The note in brackets gives the kind of curve behind each potency; many fits are weak.

Assay: qHTS Assay to Find Inhibitors of Chronic Active B-Cell Receptor Signaling
Conditions: ABC-DLBCL IkBa-CBG/CBR reporter, luminescence ratio (green luciferase fused to IkBa over red control in TMD8 lymphoma cells), 4 h
Summary of the method: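 TMD8 ABC-DLBCL cells carrying doxycycline-inducible green luciferase fused to IkappaBalpha plus unfused red luciferase were exposed to compounds (up to 46 uM) for 4 hrs at 37C. Activity came from the overlap-corrected green/red luminescence ratio.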

[1] = measured here: CBR red luminescence, cell number
[2] = measured here: IkBa-CBG green luminescence

Row | SMILES | AC50 [1] | AC50 [2]
1 | COc1cc(/C=N/NC(=O)c2ccoc2C)ccc1O | 23.1 µM [falling, partial curve, poor fit] | –
2 | Cc1nonc1NC(=O)CSc1nnc(-c2ccoc2C)n1CC(C)C | 35.5 µM [falling, single point] | –
3 | COc1ccc(NC2CCCN(C(=O)c3ccc4[nH]c(C)c(C)c4c3)C2)cc1OC (stereo not drawn) | 3.98 µM [rising, full curve] | –
4 | Cc1cc(C(=O)Nc2ccc3ccccc3c2)c(C)o1 | 10 µM [falling, partial curve] | –
5 | CC(=O)N/N=C(/C)c1ccc(NC(=O)c2csc(C)c2C)cc1 | 25.1 µM [falling, single point] | –
6 | C[C@]12C(=O)N(c3ccccc3)C(=O)N1[C@H]1c3ccccc3OC[C@@H]1[C@H]2c1ccccc1 | 9.2 µM [falling, partial curve] | –
7 | O=C(Cc1ccsc1)NNC(=O)c1ccccc1O | 13 µM [falling, partial curve] | –
8 | Cc1ccc(C(=O)c2c[nH]c(C(=O)NCc3cccnc3)c2)cc1 | 23.1 µM [falling, single point] | –
9 | CCCCOc1ccc(/C=C2/Sc3ccccc3C2=O)cc1 | 13 µM [falling, partial curve] | –
10 | CCOC(=O)/C(=N/Nc1ccccc1)c1csc(Nc2ccccc2)n1 | 13 µM [falling, single point] | –
11 | COc1cc(C2C(C#N)=C(N)N(N(C)C)C3=C2C(=O)CCC3)cc(OC)c1OC (stereo not drawn) | 22.4 µM [rising, single point] | –
12 | COc1ccc(-c2c(-c3ccc(OCC(=O)NN)cc3O)n[nH]c2C)cc1 | 11.2 µM [falling, single point] | –
13 | COc1cccc(-c2sc3ccc(OC)cc3c2-c2ccc(OCCN3CCCC3)cc2)c1 | 29.1 µM [falling, single point] | –
14 | CCc1nnc(NC(=O)c2oc3ccc(Br)cc3c2C)s1 | 16.4 µM [rising, partial curve] | –
15 | CC1CCCC(C)N1C(=O)COc1ccc(C(=O)N/N=C/c2ccc(C(=O)O)cc2)cc1 (stereo not drawn) | 10 µM [falling, partial curve] | –
16 | CC[n+]1c(/C=C2\C=C(C)CC(C)(C)C2)sc2ccccc21 | 35.5 µM [falling, single point] | –
17 | O=C(/C=C/c1ccc(F)cc1)NCc1cccs1 | 13 µM [falling, partial curve] | –
18 | O=C(c1ccccc1)c1cnc(-c2ccccc2)s1 | 2.82 µM [falling, full curve] | –
19 | CCc1ccc(C(=O)Cn2cnc3cc([N+](=O)[O-])ccc3c2=O)cc1 | 6.31 µM [rising, partial curve, poor fit] | –
20 | CCC1(c2ccc(F)cc2)NC(=O)N(CC(=O)Nc2ccc(C)c(S(=O)(=O)N3CCOCC3)c2)C1=O (stereo not drawn) | 11.2 µM [falling, single point] | –
21 | O=C(Nc1ccc2c(c1)OCO2)C(=O)c1c[nH]c2ccccc12 | 3.98 µM [falling, full curve] | –
22 | Cc1ccc(S(=O)(=O)Cc2cccc(C(=O)N3CCOCC3)c2)cc1 | 0.92 µM [falling, full curve, poor fit] | –

3 of these compounds in another layout.
CCOC(=O)/C(=N/Nc1ccccc1)c1csc(Nc2ccccc2)n1
  AC50 [1]: 13 µM [falling, single point]
CC1CCCC(C)N1C(=O)COc1ccc(C(=O)N/N=C/c2ccc(C(=O)O)cc2)cc1 (stereo not drawn)
  AC50 [1]: 10 µM [falling, partial curve]
O=C(Nc1ccc2c(c1)OCO2)C(=O)c1c[nH]c2ccccc12
  AC50 [1]: 3.98 µM [falling, full curve]

Gathered by group: the compounds so far containing fluorine
Row | SMILES | AC50 [1] | AC50 [2]
17 | O=C(/C=C/c1ccc(F)cc1)NCc1cccs1 | 13 µM [falling, partial curve] | –
20 | CCC1(c2ccc(F)cc2)NC(=O)N(CC(=O)Nc2ccc(C)c(S(=O)(=O)N3CCOCC3)c2)C1=O (stereo not drawn) | 11.2 µM [falling, single point] | –

More entries:

Row | SMILES | AC50 [1] | AC50 [2]
23 | Cc1cccc(NS(=O)(=O)c2cc(C(=O)N3CCOCC3)ccc2Cl)c1 | 0.112 µM [rising, full curve, poor fit] | –
24 | Cc1cc(CC(C)C)n(-c2nc3ccccc3c(=O)n2OCc2ccccc2)n1 | 6.31 µM [rising, single point] | –
25 | CC(=O)CC1OC(=O)C(Br)=C1NCc1ccccc1 (stereo not drawn) | 28.2 µM [falling, single point] | –
26 | Cc1cccnc1Nc1nc(-c2ccc(O)cc2)cs1 | 16.4 µM [falling, partial curve, poor fit] | –
27 | O=C(C1COc2ccccc2O1)N1CCN(c2ccccc2)CC1 (stereo not drawn) | 6.31 µM [rising, partial curve, poor fit] | –
28 | CCC(CC)C(=O)Nc1cccc(C(=O)NCCc2ccccc2)c1 | 14.1 µM [falling, single point] | –
29 | O=C(Nc1ccc(N2CCOCC2)nc1)c1ccc(F)cc1 | 16.4 µM [falling, partial curve] | –
30 | O=C(COC(=O)c1cncc(Br)c1)NCc1cccs1 | 2.31 µM [rising, partial curve, poor fit] | –
31 | CC1CC(C)CN(c2ncnc3c2cnn3-c2ccc(Cl)cc2)C1 (stereo not drawn) | 9.2 µM [rising, partial curve, poor fit] | –
32 | CC(C)C(=O)Nc1cc(S(=O)(=O)Nc2cccc(Cl)c2)ccc1Cl | 14.6 µM [falling, partial curve] | –
33 | O=C(NCCCN1CCOCC1)c1cc(-c2ccc(Cl)cc2)on1 | 2.91 µM [falling, full curve, poor fit] | –
34 | CCOC(=O)C(C)Sc1nc2c(c(=O)[nH]c(=O)n2C)n1Cc1ccc(Cl)cc1 (stereo not drawn) | 3.66 µM [rising, single point] | –
35 | C=CCc1cccc2cc(C(=O)OCC)c(=O)oc12 | 18.4 µM [rising, single point] | –
36 | COc1ccc2c(c1OC)C(=O)N1C2SC[C@H]1C(=O)NC1CCCC1 (stereo partly drawn) | 1.26 µM [rising, full curve] | –
37 | CC1CCc2nc(NC(=O)C3CCCO3)sc2C1 (stereo not drawn) | 14.6 µM [falling, single point] | –
38 | OCC#Cc1ncc(C(F)(F)F)cc1Cl | 10 µM [falling, partial curve, poor fit] | 14.1 µM [rising, single point]
39 | CN1C(=O)C2C=CC1C1C(=O)N(c3ccccc3)C(=O)C21 (stereo not drawn) | 0.112 µM [falling, full curve, poor fit] | –
40 | COc1ccc(NC(=O)CN2C(=O)c3ccccc3Sc3ccc(C(=O)N4CCOCC4)cc32)c(OC)c1 | 3.98 µM [falling, single point] | –
41 | CC(C(=O)NC(C)(C)C)N(C(=O)CS(=O)CC(=O)Nc1ccc(F)cc1)c1ccccc1F (stereo not drawn) | 7.08 µM [rising, full curve, poor fit] | –
42 | CC(=O)Nc1cc(C(=O)N2CCCC2)ccc1Sc1ccc(Cl)cc1 | 32.6 µM [falling, single point] | –
43 | Nn1c(SCC(=O)Nc2cccc(C(F)(F)F)c2)nncc1=O | 3.98 µM [falling, partial curve, poor fit] | –
44 | Oc1ccccc1C1N=C(c2ccccc2)NC(c2ccccc2)=N1 | 29.1 µM [falling, single point] | –

Row | SMILES | AC50 [1] | AC50 [2]
45 | CCN1C(=O)C(=O)N(CC(=O)Nc2ccccc2OC(F)F)C1=O | 0.731 µM [falling, partial curve, poor fit] | –
46 | CC(C)CC(=O)NC(=S)Nc1ccccn1 | – | 29.1 µM [falling, single point]
47 | Cc1ccc2c(c1C)NC(C(=O)O)C1CC=CC21 (stereo not drawn) | 7.31 µM [falling, partial curve, poor fit] | –
48 | CCNc1nc(NC(C)(C)C)nc(N2CCCC2)n1 | 14.6 µM [rising, partial curve] | –
49 | CC(C)[C@H](NC(=O)c1ccc(Cl)cc1Cl)C(=O)NNc1cccc(C(=O)O)c1 | 18.4 µM [falling, single point] | –
50 | CCOC(=O)C1CCN(S(=O)(=O)c2c(Cl)ccc3nonc23)CC1 | 2.51 µM [rising, partial curve, poor fit] | 3.16 µM [falling, partial curve]
51 | CCCCN=C1NC(=O)C(CC(=O)NCCc2ccc(OC)cc2)S1 (stereo not drawn) | – | 29.1 µM [rising, partial curve, poor fit]
52 | O=C(c1cc2cc(Br)ccc2s1)N1CCOCC1 | 12.6 µM [rising, single point] | –
53 | COc1ccc(CNc2nc3nc(C)c(Cl)c(=O)n3[nH]2)cc1 | 35.5 µM [falling, single point] | –
54 | NC(=O)C(C(=O)/C=C/c1ccc(Cl)cc1)=C1SCCS1 | 11.2 µM [falling, single point] | –
55 | CCC(=O)N1CCN(c2ccc(Cl)cc2NC(=O)Cc2ccc(Cl)cc2)CC1 | 29.1 µM [falling, single point] | 25.9 µM [rising, partial curve, poor fit]
56 | c1cc2c(cc1C1CCCCC1)c1c3n2CCN=C3CCC1 | 25.9 µM [rising, single point] | –
57 | Cc1cc(NC(=O)COC(=O)c2ccc(S(=O)(=O)N3CCCc4ccccc43)cc2)no1 | 12.6 µM [rising, partial curve] | 20 µM [falling, single point]
58 | O=C(NCCCn1ccnc1)C1CCN(S(=O)(=O)c2cc([N+](=O)[O-])ccc2Cl)CC1 | 6.51 µM [rising, full curve, poor fit] | –
59 | COC(=O)c1c(NC(=O)c2cnccn2)sc2c1CCC2 | 2.91 µM [rising, full curve] | –
60 | Cc1onc(-c2c(Cl)cccc2Cl)c1-c1nc2cc(Cl)ccc2c(=O)o1 | 0.251 µM [falling, full curve, poor fit] | –
61 | CC(C)=CCCC(C)CN1CCC(n2nccc2NC(=O)c2ccc3c(c2)OCO3)CC1 (stereo not drawn) | 0.562 µM [falling, full curve] | –
62 | COc1cccc2c1C(=O)O/C2=C/c1ccc2c(c1)OCO2 | 0.326 µM [rising, full curve, poor fit] | –
63 | COc1cc(/C=N/OCC(=O)Nc2cc(C)on2)ccc1OCc1ccccc1 | 1.16 µM [rising, partial curve, poor fit] | –
64 | Cc1ccc(NC(=S)N/N=C/c2ccc([N+](=O)[O-])s2)cc1 | 6.51 µM [rising, partial curve, poor fit] | –
